Results from publication PMC7687128, “Extracellular loops matter – subcellular location and function of the lysine transporter Lyp1 from Saccharomyces cerevisiae” (The Febs Journal, 2020).

Molecular target: T1, Lyp1 (Lyp1-YPet) (Saccharomyces cerevisiae, UniProt P32487)
T1 construct: full-length, YPet fluorescent protein fusion, plasmid-expressed in S. cerevisiae, assayed in whole cells
T1 sequence (P32487 1-611): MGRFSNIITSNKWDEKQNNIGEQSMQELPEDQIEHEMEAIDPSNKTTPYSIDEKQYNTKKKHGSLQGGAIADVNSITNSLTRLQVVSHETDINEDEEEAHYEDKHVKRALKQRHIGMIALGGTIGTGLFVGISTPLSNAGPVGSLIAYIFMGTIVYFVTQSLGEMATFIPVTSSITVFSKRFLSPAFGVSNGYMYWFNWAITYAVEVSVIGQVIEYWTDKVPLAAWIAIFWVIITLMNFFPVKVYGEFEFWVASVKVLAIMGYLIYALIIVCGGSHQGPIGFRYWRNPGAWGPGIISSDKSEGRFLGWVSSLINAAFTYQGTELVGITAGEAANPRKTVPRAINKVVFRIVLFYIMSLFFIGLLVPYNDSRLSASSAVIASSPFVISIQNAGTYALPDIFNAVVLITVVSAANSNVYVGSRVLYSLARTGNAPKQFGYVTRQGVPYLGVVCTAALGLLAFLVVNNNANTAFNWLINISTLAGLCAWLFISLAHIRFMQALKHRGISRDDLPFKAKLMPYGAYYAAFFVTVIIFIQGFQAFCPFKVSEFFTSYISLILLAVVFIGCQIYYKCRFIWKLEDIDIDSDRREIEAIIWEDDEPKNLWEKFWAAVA
Experiment: competition with […]-lysine uptake in S. cerevisiae cells
Assay type: cell-based

% reduction of lysine transport at 100 mM: > 80%
Structure (SMILES): NCCC[C@H](N)C(=O)O [ornithine]
